# Laboratory results taken from PubChem BioAssay AID540276 (National Center for Advancing Translational Sciences (NCATS), 2011).
# In all, about 300,000 compounds went through this assay and about 5,400 (1.8%) were called active. This list was built around the results that the source calls inconclusive (neither active nor inactive); the mix of calls is not that of the screen. Calls follow the shape of the full dose curve; tested in HEK293 cells. A potency beside an inconclusive call is a rough fit, not a confirmed value.
# Assay: qHTS for inhibitors of binding or entry into cells for Marburg Virus
# Conditions: Marburg virus pseudotyped entry inhibition, cell reporter; activity change, negative = inhibition: at 37.8 µM (top of the series) unless noted
# % is scaled to controls: 0 for no effect and ±100 for the full control effect; potency is read from the fitted curve at half-maximal effect.
Structure (SMILES),Potency,"activity change, negative = inhibition"
Cc1ccc(-c2cc(C(=O)N/N=C/c3c(C)nn(C)c3C)c3ccccc3n2)cc1C,"inconclusive: 22.4 µM [inhibitor, single point]",–
CC(C)CCn1c(=O)c(C(=O)Nc2ccccc2S(N)(=O)=O)c(O)c2ccccc21,"inconclusive: 35.5 µM [inhibitor, single point]",–
Cc1ccc(Nc2ncnc3sc4c(c23)CCC(C)C4)cc1C (stereo unspecified),–,inactive: 0.0882% [at 46.1 µM]
COc1ccccc1N1CCN(C(=O)C2CCCN(S(=O)(=O)c3ccc4c(c3)CCCN4C(C)=O)C2)CC1 (stereo unspecified),active: 11.2 µM,–
O=S(=O)(NC1CC1)c1ccc(S(=O)(=O)N2CCCC3(CCCCC3)C2)cc1,"inconclusive: 29.1 µM [inhibitor, single point]",–
N#CC1(NC(=O)CSc2nnc(Nc3ccccc3F)s2)CCCC1,–,inactive: 2.56%
CC(CCc1ccccc1)NC(=O)COC(=O)C1CCC(C(C)(C)C)CC1 (stereo unspecified),"inconclusive: 3.98 µM [activator, partial curve, poor fit]",–
COc1ccccc1NC1=CC(=O)CC(c2ccccc2)C1 (stereo unspecified),–,inactive: -15.3%
CCn1c(=S)sc2c(=O)n(CC(=O)Nc3cc(OC)ccc3OC)c(C)nc21,"inconclusive: 6.31 µM [inhibitor, single point]",–
Cc1ccc2c(=O)cc(C(=O)Nc3c(C)n(C)n(-c4ccccc4)c3=O)oc2c1,–,inactive: 2.1% [at 46.1 µM]
COc1ccc(CNC(=O)C2Cc3ccccc3CN2C(=O)c2ccco2)cc1 (stereo unspecified),"inconclusive: 0.562 µM [inhibitor, partial curve, poor fit]",–
CSc1ncccc1C(=O)OCC(=O)Nc1ccc(N2CCOCC2)cc1,–,inactive: 4.02% [at 46.1 µM]
CCOC(=O)C1(C)C=C(Nc2cccc(C(=O)O)c2)C(=O)N1c1ccccc1 (stereo unspecified),"inconclusive: 0.631 µM [activator, full curve, poor fit]",–
CCOc1ccc(-c2nc(CSc3nnc(C)s3)cs2)cc1OC,–,inactive: 0.272% [at 46.1 µM]
CSc1cccc(N2CC(C(=O)NCCN3C(=O)S/C(=C\c4cccnc4)C3=O)CC2=O)c1 (stereo unspecified),"inconclusive: 5.62 µM [activator, single point]",–
O=C(N/N=C/c1c(O)n(Cc2ccccc2)c(=O)c2ccccc12)c1cccnc1,–,inactive: -27.9% [at 46.1 µM]
Cc1ccc(NC(=O)c2ccc3ccccc3n2)cc1S(=O)(=O)N1CCOCC1,"inconclusive: 35.5 µM [inhibitor, single point]",–
O=C1CC(N2CCC(c3nc4ccccc4o3)CC2)C(=O)N1Cc1cccs1 (stereo unspecified),–,inactive: -4.59% [at 46.1 µM]
CC(=O)Nc1ccc(-c2csc(NC(=O)CCNC(=O)c3ccco3)n2)cc1,–,inactive: -19.3% [at 46.1 µM]
COc1cccc(-n2c(/C=C/c3ccccn3)nc3ccccc3c2=O)c1,"inconclusive: 3.98 µM [inhibitor, partial curve]",–
Cc1ccc(N=c2c([N+](=O)[O-])nn(-c3ccc4c(c3)OCCO4)n2O)cc1F,"inconclusive: 35.5 µM [inhibitor, single point]",–
NC(N)=NC(=S)Nc1ccc(Cl)cc1,"inconclusive: 0.631 µM [activator, full curve, poor fit]",–
O=C(CNC(=O)c1ccccc1Cl)N/N=C/c1ccc([N+](=O)[O-])s1,"inconclusive: 35.5 µM [inhibitor, single point]",–
O=C(Nc1sc2c(c1C(=O)NCc1cccnc1)CCCC2)c1ccco1,"inconclusive: 29.1 µM [inhibitor, single point]",–

Structure (SMILES),Potency,"activity change, negative = inhibition"
COc1ccc(NC(=O)COC(=O)CNS(=O)(=O)c2ccccc2)cc1OC,–,inactive: 18.8% [at 14.2 µM]
CC(C)(C)NS(=O)(=O)c1ccc(NC(=O)C(Sc2ccccc2)c2ccccc2)cc1 (stereo unspecified),"inconclusive: 5.17 µM [inhibitor, partial curve, poor fit]",–
CCOC(=O)c1c(C)[nH]c(C(=O)COC(=O)/C=C/c2ccc3c(c2)OCO3)c1C,"inconclusive: 0.282 µM [inhibitor, full curve, poor fit]",–
COc1ccc(OC)c(NS(=O)(=O)c2ccc(NC(=O)C3COc4ccccc4O3)cc2)c1 (stereo unspecified),"inconclusive: 25.9 µM [inhibitor, single point]",–
Cc1cc(N2CCCCC2)nc(SCC(=O)c2ccccc2)n1,"inconclusive: 29.1 µM [inhibitor, single point]",–
CC(=O)c1c(C)[nH]c(C(=O)N(CCc2ccccc2)Cc2ccccc2)c1C,"inconclusive: 31.6 µM [inhibitor, single point]",–
CSc1nc(NC(C)=O)nc(C)c1Cl,inactive,–
Cc1cc(C)cc(Nc2nc3c(S(=O)(=O)c4ccccc4)nnn3c3ccccc23)c1,"inconclusive: 0.891 µM [activator, single point]",–
COc1cc(NC(=O)c2cc3cc4ccc(C)cc4nc3o2)cc(OC)c1OC,"inconclusive: 5.62 µM [inhibitor, single point]",–
CCC[C@]12CCN3C(=O)N[C@@H](c4ccccc4)[C@](C(=O)OCC)(C1)[C@H]32,–,inactive: 8.83% [at 14.2 µM]
O=c1cc(N2CCN(c3cccc(Cl)c3)CC2)[nH]c(=O)n1C1CCCCC1,–,inactive: 5.95%
Cc1oc(-c2cccc(Cl)c2)nc1CN(C)C1CCOC1 (stereo unspecified),–,inactive: 12.7% [at 46.1 µM]
CS(=O)(=O)N1N=C(c2ccco2)CC1c1ccccc1Cl (stereo unspecified),–,inactive: -2.18% [at 46.1 µM]
COC(=O)c1cc2sc(Cl)cc2n1CC(=O)Nc1cccc(SC)c1,–,inactive: -24.6%
CCN(CC)S(=O)(=O)c1cc(-c2nnc(-c3ccc(Br)cc3)o2)ccc1Br,"inconclusive: 0.631 µM [activator, single point]",–
COc1nc(=O)n(C2CCCO2)cc1C (stereo unspecified),–,inactive: 16.3%
O=C(O)c1cc(Cl)c(Cl)cc1C(=O)Nc1cccc2cccnc12,"inconclusive: 8.91 µM [activator, partial curve]",–
O=C(CSc1nc(-c2cccc(F)c2)[nH]c1-c1ccccc1)Nc1ccc2c(c1)OCO2,"inconclusive: 2.51 µM [inhibitor, partial curve, poor fit]",–
COC1=C[C@H](C(=O)N[C@H]2CCCC[C@H]2NC(C)=O)[C@H](C)[C@@H](c2ccccc2)CC1=O,"inconclusive: 2.99 µM [inhibitor, partial curve, poor fit]",–
COc1cc(NC(=O)CSc2c3c(nc4ccccc24)CCC3)cc(OC)c1OC,"inconclusive: 11.2 µM [inhibitor, partial curve]",–
Cc1ccc(NC(NC(=O)OCCn2c([N+](=O)[O-])cnc2C)C(Cl)(Cl)Cl)cc1 (stereo unspecified),–,inactive: 12.6%
CNC(=S)NC(CC(=O)OC)c1ccc2c(c1)OCO2 (stereo unspecified),–,inactive: 3.05% [at 46.1 µM]
O=C(CN1CCOCCOCCOCCOCC1)Nc1ccccc1,"inconclusive: 29.1 µM [activator, single point]",–
COc1ccc(Cl)cc1NC(=O)C/C(C)=N/NC(=O)CCc1ccccc1,–,inactive: -23.8% [at 46.1 µM]

Structure (SMILES),Potency,"activity change, negative = inhibition"
CCOc1ccc(/C=C/C(=O)c2ccc(-c3ccccc3)cc2)cc1,"inconclusive: 3.98 µM [inhibitor, single point]",–
OCCN1CCN(CCOc2ccccc2-c2ccccc2)CC1,"inconclusive: 20.6 µM [inhibitor, single point]",–
CCCC(C(=O)NC(C)(C)C)N(C(=O)c1snc(C(N)=O)c1N)c1ccc2c(c1)OCCO2 (stereo unspecified),"inconclusive: 17.8 µM [inhibitor, single point]",–
Cc1cc2ncn(C(=O)c3ccc4c(c3)OCO4)c2cc1C,–,inactive: 13.7% [at 46.1 µM]
Cc1cccc2cc(C3CC(c4ccco4)=NN3S(=O)(=O)c3ccccc3)c(Cl)nc12 (stereo unspecified),"inconclusive: 35.5 µM [inhibitor, single point]",–
COC(=O)C(C)N(C(=O)c1ccc(Cl)cc1)c1c(C)cccc1C (stereo unspecified),"inconclusive: 1.83 µM [inhibitor, partial curve]",–
CCCn1c(=O)c(C(=O)Nc2ccccc2)c(O)c2ccccc21,–,inactive: -1.31%
Cc1nc2sccn2c1P(c1c(C)nc2sccn12)c1c(C)nc2sccn12,–,inactive: -22.6%
Cc1ccc(S(=O)(=O)N2CCOCC2)cc1C(=O)N1c2ccccc2Sc2ccccc21,"inconclusive: 0.891 µM [inhibitor, full curve, poor fit]",–
O=C(c1ccc2c(c1)N(Cc1ccc(F)cc1)C(=O)c1ccccc1S2(=O)=O)N1CCCCC1,–,inactive: -4.38% [at 46.1 µM]
Cc1cccc2c(N=Nc3ccc(S(=O)(=O)Nc4ccc(Cl)cc4)cc3[N+](=O)[O-])c(O)[nH]c12,"inconclusive: 29.1 µM [inhibitor, single point]",–
Cc1ccc2cccc(NC(=S)NC(=O)c3ccn(C)n3)c2n1,–,inactive: -4.3%
CCN1C(=O)C(CC(=O)Nc2ccc(OC)cc2)N(Cc2ccc(OC)c(OC)c2)C1=S (stereo unspecified),–,inactive: 0.323%
CC(C)(C)c1ccc(CNc2ccc([N+](=O)[O-])cn2)cc1,"inconclusive: 5.62 µM [activator, single point]",–
CC1CCN(Cc2nc(-c3ccccc3)no2)CC1,"inconclusive: 6.31 µM [activator, single point]",–
CCN(CC)S(=O)(=O)c1ccc(C(=O)NCCSc2c(-c3ccccc3)[nH]c3ccccc23)cc1,"inconclusive: 10 µM [inhibitor, partial curve, poor fit]",–
O=C(CSc1nnc(NCc2ccccc2)s1)N1CCOCC1,–,inactive: -18.6%
O=C1CSC(=NC2CCCCC2)N1,–,inactive: -16.6%
CN1/C(=C\C(=O)c2cncc(Br)c2)C(C)(C)c2ccccc21,"inconclusive: 6.51 µM [inhibitor, partial curve]",–
COc1cc(C(=O)Nc2ccncc2)c([N+](=O)[O-])cc1OC,"inconclusive: 6.31 µM [inhibitor, single point]",–
COc1cc(/C=N/NC(=O)CSc2cc(C)c(Br)cc2C)ccc1O,–,inactive: -17.2%
S=C(Nc1cccc2ccccc12)NN1CCOCC1,–,inactive: 0.678%
CN(Cc1ccccc1F)C(=O)C1CCCN(C(=O)c2ccc(Cl)cc2)C1 (stereo unspecified),"inconclusive: 7.94 µM [inhibitor, partial curve, poor fit]",–

# Compounds above that have an NH in an aromatic ring, in the order listed:
Structure (SMILES),Potency,"activity change, negative = inhibition"
CCOC(=O)c1c(C)[nH]c(C(=O)COC(=O)/C=C/c2ccc3c(c2)OCO3)c1C,"inconclusive: 0.282 µM [inhibitor, full curve, poor fit]",–
CC(=O)c1c(C)[nH]c(C(=O)N(CCc2ccccc2)Cc2ccccc2)c1C,"inconclusive: 31.6 µM [inhibitor, single point]",–
O=c1cc(N2CCN(c3cccc(Cl)c3)CC2)[nH]c(=O)n1C1CCCCC1,–,inactive: 5.95%
O=C(CSc1nc(-c2cccc(F)c2)[nH]c1-c1ccccc1)Nc1ccc2c(c1)OCO2,"inconclusive: 2.51 µM [inhibitor, partial curve, poor fit]",–
Cc1cccc2c(N=Nc3ccc(S(=O)(=O)Nc4ccc(Cl)cc4)cc3[N+](=O)[O-])c(O)[nH]c12,"inconclusive: 29.1 µM [inhibitor, single point]",–
CCN(CC)S(=O)(=O)c1ccc(C(=O)NCCSc2c(-c3ccccc3)[nH]c3ccccc23)cc1,"inconclusive: 10 µM [inhibitor, partial curve, poor fit]",–

# Ordered by length of the SMILES (rising): part of the list above
Structure (SMILES),Potency,"activity change, negative = inhibition"
O=C1CSC(=NC2CCCCC2)N1,–,inactive: -16.6%
Cc1cc2ncn(C(=O)c3ccc4c(c3)OCO4)c2cc1C,–,inactive: 13.7% [at 46.1 µM]
CCCC(C(=O)NC(C)(C)C)N(C(=O)c1snc(C(N)=O)c1N)c1ccc2c(c1)OCCO2 (stereo unspecified),"inconclusive: 17.8 µM [inhibitor, single point]",–
